Values quoted from earlier work as cited in patent publication US7618958B2, “Stereospecific anxiolytic and anticonvulsant agents with reduced muscle-relaxant, sedative-hypnotic and ataxic effects” (WISYS Technology Foundation, Inc., priority 2004, dated 2009).

Sequences of proteins named here, by UniProt entry; tags and fusion partners are left off. Residues count along the entry.
UniProt P18507, 40-475: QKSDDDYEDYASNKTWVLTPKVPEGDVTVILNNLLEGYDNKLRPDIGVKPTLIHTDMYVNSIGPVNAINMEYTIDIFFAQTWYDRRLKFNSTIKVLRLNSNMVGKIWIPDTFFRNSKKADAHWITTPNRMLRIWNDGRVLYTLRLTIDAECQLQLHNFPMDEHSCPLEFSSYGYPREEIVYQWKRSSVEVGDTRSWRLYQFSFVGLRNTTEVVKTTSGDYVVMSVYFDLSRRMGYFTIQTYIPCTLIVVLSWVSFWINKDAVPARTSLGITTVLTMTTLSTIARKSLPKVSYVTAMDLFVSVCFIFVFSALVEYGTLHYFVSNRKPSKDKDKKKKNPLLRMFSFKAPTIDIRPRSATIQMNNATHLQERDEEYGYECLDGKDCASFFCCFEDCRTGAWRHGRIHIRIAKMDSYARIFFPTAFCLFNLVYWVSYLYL
UniProt P31644, 32-462: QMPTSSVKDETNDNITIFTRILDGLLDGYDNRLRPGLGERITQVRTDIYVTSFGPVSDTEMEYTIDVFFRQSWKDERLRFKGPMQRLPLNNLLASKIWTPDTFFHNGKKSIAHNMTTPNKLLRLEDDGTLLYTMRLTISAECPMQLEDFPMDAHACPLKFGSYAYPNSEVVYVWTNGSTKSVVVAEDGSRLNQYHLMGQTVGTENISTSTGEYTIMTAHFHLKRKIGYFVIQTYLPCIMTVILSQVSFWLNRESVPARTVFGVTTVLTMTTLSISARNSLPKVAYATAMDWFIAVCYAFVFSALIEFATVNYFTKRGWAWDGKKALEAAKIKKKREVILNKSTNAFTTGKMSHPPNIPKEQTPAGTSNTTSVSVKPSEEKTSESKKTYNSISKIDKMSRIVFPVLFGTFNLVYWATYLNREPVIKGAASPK

Target: GABAA/α5 receptors (Homo sapiens, UniProt P18507+P31644)
Details: read-out: Ki, GABAA/α5 receptors; cited from earlier work

Question: For `CN1C(=O)CN=C(c2ccccc2)c2cc(Cl)ccc21` [Diazepam, reference compound], which Ki is on record?
Answer: The Ki was less than 25 nM.
